Source: the supplement of paper PMC10849652
The other results are listed elsewhere or left out.

Chains of the proteins cited; added tags and fusions are not shown. Lines headed by an entry give the natural chain unless they say otherwise; changes in a name come on top.
UniProt Q9H223: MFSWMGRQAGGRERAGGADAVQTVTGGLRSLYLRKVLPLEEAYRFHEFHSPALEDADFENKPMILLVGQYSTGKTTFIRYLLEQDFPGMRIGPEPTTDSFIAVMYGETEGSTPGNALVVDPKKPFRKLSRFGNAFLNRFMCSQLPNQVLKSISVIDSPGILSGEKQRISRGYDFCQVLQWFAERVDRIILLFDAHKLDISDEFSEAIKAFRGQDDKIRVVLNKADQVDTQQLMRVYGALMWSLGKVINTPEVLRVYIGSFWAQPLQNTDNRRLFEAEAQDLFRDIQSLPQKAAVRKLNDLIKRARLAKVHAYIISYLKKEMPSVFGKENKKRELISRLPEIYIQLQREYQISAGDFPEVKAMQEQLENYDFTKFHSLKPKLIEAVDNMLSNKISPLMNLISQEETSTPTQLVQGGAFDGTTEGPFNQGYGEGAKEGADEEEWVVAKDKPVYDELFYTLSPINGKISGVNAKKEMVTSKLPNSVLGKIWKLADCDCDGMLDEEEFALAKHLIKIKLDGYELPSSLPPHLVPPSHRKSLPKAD
UniProt P60981: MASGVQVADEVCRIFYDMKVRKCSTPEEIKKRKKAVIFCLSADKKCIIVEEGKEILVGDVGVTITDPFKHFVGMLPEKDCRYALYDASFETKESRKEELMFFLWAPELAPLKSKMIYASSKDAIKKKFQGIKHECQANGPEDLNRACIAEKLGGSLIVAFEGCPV
UniProt Q01658: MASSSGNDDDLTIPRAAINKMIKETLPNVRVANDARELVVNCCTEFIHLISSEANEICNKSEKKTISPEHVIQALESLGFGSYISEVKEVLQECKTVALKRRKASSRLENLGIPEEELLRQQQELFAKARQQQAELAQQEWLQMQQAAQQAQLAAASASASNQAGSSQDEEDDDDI
UniProt Q8TEA8: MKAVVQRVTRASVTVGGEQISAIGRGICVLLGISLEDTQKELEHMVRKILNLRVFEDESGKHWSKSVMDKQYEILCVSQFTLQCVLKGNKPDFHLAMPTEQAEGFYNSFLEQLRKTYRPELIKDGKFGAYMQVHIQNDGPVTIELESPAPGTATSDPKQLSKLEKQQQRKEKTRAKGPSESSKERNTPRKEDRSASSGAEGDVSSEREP
UniProt Q9NRR4: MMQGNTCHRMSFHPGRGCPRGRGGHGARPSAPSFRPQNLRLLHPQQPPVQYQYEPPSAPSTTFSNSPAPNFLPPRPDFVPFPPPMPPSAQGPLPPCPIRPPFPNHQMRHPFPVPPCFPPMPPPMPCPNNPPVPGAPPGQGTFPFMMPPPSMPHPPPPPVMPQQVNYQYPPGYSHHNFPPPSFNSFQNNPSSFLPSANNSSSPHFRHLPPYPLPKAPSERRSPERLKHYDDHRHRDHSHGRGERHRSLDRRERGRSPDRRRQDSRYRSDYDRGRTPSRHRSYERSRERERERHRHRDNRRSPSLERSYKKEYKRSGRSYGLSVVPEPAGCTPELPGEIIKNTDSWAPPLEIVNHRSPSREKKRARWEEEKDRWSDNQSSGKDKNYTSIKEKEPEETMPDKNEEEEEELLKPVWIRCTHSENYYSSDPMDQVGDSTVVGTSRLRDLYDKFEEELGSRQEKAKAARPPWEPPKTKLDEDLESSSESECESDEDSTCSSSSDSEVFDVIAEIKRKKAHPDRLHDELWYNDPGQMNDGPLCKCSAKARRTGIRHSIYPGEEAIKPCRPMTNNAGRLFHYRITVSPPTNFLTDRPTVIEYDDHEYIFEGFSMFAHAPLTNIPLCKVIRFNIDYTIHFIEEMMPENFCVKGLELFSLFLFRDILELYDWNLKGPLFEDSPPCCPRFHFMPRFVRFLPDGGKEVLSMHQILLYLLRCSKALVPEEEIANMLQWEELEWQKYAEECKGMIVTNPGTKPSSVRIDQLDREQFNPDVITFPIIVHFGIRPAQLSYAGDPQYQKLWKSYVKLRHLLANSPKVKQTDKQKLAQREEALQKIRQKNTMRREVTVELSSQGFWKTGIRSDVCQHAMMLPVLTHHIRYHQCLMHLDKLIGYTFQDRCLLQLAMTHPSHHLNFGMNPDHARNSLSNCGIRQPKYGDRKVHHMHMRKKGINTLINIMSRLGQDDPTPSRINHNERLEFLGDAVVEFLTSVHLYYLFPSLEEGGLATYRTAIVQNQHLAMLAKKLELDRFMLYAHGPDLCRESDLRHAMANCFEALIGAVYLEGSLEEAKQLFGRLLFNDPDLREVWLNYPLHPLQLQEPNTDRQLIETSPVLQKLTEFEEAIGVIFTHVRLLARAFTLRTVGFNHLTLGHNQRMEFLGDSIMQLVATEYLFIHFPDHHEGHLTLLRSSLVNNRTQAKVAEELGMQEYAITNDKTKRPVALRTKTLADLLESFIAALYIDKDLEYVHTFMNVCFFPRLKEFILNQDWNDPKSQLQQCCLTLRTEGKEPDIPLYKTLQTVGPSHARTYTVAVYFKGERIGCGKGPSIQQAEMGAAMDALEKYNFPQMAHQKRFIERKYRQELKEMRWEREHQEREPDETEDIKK
UniProt Q6P2E9: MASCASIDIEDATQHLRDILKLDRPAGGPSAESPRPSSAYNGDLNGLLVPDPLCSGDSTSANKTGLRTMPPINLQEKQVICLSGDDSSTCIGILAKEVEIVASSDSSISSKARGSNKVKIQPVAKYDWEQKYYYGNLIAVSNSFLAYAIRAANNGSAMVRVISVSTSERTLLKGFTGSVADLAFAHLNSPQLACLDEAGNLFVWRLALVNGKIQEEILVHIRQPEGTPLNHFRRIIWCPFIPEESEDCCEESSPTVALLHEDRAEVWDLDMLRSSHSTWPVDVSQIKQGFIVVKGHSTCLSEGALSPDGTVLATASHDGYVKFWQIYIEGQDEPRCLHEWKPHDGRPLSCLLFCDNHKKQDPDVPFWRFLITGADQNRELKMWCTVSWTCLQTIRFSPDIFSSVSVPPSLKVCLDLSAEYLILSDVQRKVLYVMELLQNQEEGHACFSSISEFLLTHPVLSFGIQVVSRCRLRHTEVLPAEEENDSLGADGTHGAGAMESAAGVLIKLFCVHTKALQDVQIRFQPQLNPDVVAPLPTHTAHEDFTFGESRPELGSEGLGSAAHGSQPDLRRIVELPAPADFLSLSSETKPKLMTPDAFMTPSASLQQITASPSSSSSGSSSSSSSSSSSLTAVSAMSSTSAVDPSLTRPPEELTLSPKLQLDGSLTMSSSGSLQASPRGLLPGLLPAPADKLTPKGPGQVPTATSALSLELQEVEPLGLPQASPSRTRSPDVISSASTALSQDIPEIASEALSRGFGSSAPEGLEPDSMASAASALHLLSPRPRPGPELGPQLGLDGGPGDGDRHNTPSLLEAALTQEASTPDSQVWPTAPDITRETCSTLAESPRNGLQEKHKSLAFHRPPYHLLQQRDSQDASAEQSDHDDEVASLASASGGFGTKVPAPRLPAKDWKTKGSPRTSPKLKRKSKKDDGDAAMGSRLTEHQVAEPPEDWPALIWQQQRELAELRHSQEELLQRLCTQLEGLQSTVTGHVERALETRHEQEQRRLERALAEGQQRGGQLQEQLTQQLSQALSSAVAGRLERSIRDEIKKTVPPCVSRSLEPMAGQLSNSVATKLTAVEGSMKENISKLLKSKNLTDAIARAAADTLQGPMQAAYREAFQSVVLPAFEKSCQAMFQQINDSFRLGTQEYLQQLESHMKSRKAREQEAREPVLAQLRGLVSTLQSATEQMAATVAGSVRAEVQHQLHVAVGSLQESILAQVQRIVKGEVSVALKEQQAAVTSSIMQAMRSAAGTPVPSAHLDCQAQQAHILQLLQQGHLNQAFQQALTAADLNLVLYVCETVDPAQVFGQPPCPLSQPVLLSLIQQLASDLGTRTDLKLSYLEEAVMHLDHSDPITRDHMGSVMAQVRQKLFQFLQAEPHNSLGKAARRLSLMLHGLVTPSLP
UniProt Q9BZQ6: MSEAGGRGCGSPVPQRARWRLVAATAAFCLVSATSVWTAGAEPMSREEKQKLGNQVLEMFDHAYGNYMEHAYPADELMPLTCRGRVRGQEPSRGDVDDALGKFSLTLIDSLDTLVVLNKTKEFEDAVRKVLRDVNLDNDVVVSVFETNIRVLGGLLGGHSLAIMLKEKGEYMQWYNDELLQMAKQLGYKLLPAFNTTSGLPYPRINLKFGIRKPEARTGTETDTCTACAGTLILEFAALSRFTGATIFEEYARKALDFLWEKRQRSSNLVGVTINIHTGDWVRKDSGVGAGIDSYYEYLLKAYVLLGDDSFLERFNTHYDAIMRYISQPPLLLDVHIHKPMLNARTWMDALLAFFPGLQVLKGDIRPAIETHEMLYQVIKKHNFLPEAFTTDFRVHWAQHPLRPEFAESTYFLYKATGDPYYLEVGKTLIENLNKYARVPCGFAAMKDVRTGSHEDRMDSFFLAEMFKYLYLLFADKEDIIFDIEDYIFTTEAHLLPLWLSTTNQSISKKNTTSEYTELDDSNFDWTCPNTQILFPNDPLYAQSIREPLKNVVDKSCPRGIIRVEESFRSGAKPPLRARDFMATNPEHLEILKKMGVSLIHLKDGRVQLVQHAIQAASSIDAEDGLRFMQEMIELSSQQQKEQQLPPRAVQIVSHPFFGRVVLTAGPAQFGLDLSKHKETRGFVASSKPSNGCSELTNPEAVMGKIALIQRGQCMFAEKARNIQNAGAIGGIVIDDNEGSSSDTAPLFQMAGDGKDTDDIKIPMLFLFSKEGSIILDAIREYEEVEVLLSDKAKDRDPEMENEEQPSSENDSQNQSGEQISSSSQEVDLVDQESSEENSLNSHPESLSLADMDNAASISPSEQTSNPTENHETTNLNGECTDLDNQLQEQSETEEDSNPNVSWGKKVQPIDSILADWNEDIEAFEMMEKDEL
UniProt P42126: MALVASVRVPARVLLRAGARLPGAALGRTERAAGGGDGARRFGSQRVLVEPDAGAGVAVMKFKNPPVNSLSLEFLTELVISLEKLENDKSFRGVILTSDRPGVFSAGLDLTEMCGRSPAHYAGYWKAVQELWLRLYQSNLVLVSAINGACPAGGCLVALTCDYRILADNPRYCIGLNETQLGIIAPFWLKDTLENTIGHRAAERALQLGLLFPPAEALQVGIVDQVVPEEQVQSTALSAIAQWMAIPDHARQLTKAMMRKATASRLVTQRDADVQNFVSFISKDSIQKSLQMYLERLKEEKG
UniProt Q9H4M9: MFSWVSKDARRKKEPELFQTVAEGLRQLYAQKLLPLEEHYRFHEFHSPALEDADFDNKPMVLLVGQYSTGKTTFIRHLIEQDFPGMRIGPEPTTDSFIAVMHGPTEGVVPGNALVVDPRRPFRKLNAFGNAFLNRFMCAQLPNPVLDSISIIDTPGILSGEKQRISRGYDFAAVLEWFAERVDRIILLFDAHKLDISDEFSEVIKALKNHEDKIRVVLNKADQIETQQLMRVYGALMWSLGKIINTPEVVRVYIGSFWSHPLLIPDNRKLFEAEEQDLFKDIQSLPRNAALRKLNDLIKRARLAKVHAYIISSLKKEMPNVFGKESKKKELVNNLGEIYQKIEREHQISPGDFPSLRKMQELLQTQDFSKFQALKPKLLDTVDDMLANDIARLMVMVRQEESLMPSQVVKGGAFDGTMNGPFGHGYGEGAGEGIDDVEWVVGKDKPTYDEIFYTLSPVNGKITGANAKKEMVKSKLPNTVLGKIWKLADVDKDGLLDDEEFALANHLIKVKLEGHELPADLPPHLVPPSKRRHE
UniProt Q5JPH6: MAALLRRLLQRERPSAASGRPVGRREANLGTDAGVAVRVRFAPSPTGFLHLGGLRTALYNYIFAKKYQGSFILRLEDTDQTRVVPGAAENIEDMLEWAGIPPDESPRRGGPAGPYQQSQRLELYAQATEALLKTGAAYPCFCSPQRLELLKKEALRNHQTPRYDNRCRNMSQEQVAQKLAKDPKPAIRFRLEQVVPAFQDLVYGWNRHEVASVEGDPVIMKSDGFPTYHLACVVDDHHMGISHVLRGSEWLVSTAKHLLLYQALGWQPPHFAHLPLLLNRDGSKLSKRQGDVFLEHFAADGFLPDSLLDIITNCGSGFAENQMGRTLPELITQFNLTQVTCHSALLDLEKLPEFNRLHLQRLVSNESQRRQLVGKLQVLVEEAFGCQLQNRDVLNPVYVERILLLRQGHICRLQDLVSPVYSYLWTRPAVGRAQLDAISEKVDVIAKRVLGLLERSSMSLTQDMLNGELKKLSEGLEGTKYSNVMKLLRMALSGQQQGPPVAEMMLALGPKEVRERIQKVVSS
UniProt Q9BZG8: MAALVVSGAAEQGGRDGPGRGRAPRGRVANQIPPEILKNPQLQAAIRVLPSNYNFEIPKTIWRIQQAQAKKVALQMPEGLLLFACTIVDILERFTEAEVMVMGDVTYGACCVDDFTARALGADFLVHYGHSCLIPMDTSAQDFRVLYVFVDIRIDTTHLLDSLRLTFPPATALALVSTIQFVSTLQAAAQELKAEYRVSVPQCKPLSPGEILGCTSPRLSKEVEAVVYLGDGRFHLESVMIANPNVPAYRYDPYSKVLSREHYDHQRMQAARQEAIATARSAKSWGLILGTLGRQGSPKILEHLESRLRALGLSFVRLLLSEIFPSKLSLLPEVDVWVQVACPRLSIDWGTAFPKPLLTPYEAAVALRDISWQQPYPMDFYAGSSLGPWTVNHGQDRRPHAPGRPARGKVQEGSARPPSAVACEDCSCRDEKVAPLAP

Legend:
Assay in all cases: log2 fold change, soluble protein after heating vs DMSO (PISA); higher = thermal stabilisation; K562 lysate, 10 uM; active = over 0.2 and 3.5 SD of the protein, either way, in both replicates (recomputed)
[1] = compound: C#Cc1cccc(Nc2ncnc3cc(OCCOC)c(OCCOC)cc23)c1 [erlotinib]
Summary of the method: (§1)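 To prepare the extract, K562 pellets were dounce-homogenised in PBS pH 7.4 with 1 mM MgCl2, giving crude material at 1 mg/mL protein. This was treated with 10 μM compound for 30 min, then heated in aliquots for 3 min over 48°C-58°C before pooling and addition of NP-40 to 0.5% at 4°C. Centrifugation at 21,000xg for 90 min left soluble protein in the supernatant, which TMTpro 16plex LC-MS/MS quantified with equalised channel sums. Results are log-two fold changes in thermal stability compared with solvent controls, from duplicates.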

[2] = compound: C/C(=N\NC(=O)C1=CC(=CC=C1)S(=O)(=O)N2CCOCC2)/C3=C(C=CC(=C3)Cl)O
Summary of the method: as §1

[3] = compound: C1=CC(=CC=C1C2=NC3=C(N2)C=C(C=C3)C(=O)N)OC4=CC=C(C=C4)Cl
Summary of the method: as §1

[4] = compound: C1=CC2=C(C=CC(=C2)/C=C\3/C(=O)NC(=NCC4=CC=CS4)S3)N=C1
Summary of the method: as §1

[5] = compound: C1=CC2=NC=CN=C2C=C1/C=C/3\C(=O)NC(=O)S3
Summary of the method: as §1

[6] = compound: C1=CC=C(C=C1)C2=NC(=C(N2)C3=CC=NC=C3)C4=CC(=C(C=C4)Cl)O
Summary of the method: as §1

[7] = compound: C1=CC=C2C(=C1)C3=NNC4=CC=CC(=C43)C2=O
Summary of the method: as §1

[8] = compound: C1CCN(C1)C(=O)NC2=CC=CC(=C2)NC3=NC=C(C(=N3)NCCC4=CN=CN4)Br
Summary of the method: as §1

[9] = compound: C1CN(CCC1(CC2=CC=C(C=C2)Cl)N)C3=NC=NC4=C3C=CN4
Summary of the method: as §1

[10] = compound: C1COCCN1CCN2C3=CC=CC=C3N=C2NC(=O)C4=CC(=CC=C4)[N+](=O)[O-] [IRAK-1-4 Inhibitor I]
Summary of the method: as §1

[11] = compound: C=CC(=O)N1CCC[C@@H](n2nc(-c3ccc(Oc4ccccc4)cc3)c3c(N)ncnc32)C1 [ibrutinib]
Summary of the method: as §1

[12] = compound: CC(=O)c1cnc2ccc(-c3cc(Cl)c(O)c(Cl)c3)nc2c1N[C@H]1CC[C@H](CN(C)C)CC1
Summary of the method: as §1

[13] = compound: CC(C)(C)Cn1c(N)nc2ccc(-c3[nH]c(C(C)(C)C)nc3-c3ccc(F)cc3)nc21 [ralimetinib]
Summary of the method: as §1

[14] = compound: CC(C)(O)CC(=O)NCCn1ccc2ncnc(Nc3ccc(Oc4cccc(C(F)(F)F)c4)c(Cl)c3)c21
Summary of the method: as §1

[15] = compound: CC(C)C1=C2N=C(C=C(N2N=C1)NCC3=CC=CC=C3)NCCCCCCN
Summary of the method: as §1

[16] = compound: CC1=C(C(CC(=O)N1)C2=CC=C(C=C2)C(F)(F)F)C(=O)NC3=C(C=C4C(=C3)C=NN4)F
Summary of the method: as §1

[17] = compound: CC1=C(C2=C(C=C1)C(=O)C3=CC=CC=C3N2CCCN)C
Summary of the method: as §1

[18] = compound: CC1=C(C=C(C=C1)NC(=O)C2=CC(=CC=C2)C(C)(C)C#N)NC3=CC4=C(C=C3)N=CN(C4=O)C
Summary of the method: as §1

[19] = compound: CC1=C(C=C(C=C1)NC(=O)C2=CC(=CC=C2)N(C)C)NC(=O)C3=CC=C(C=C3)O
Summary of the method: as §1

[20] = compound: CC1=CC=C(C=C1)SC2=C3C=C(SC3=CN=C2)C(=O)N
Summary of the method: as §1

Measured: log2 fold change

EHD4 (UniProt Q9H223)
inactive: [1] 0.028 | [2] 0.153 | [3] -0.087 | [4] -0.023 | [5] 0.096 | [6] 0.013 | [7] -0.072 | [8] -0.024 | [9] 0.057 | [10] -0.035 | [11] -0.021 | [12] -0.006 | [13] 0.036 | [14] 0.02 | [15] -0.03 | [16] 0.002 | [17] 0.017 | [18] -0.029 | [19] 0.008 | [20] 0.009

DSTN (UniProt P60981)
inactive: [1] -0.038 | [2] -0.027 | [3] -0.007 | [4] 0.014 | [5] 0.013 | [6] 0 | [7] 0.005 | [8] -0.021 | [9] -0.012 | [10] -0.007 | [11] -0.011 | [12] -0.013 | [13] -0.004 | [14] 0.038 | [15] -0.006 | [16] -0.001 | [17] 0.045 | [18] -0.005 | [19] -0.012 | [20] -0.003

DR1 (UniProt Q01658)
inactive: [1] 0.052 | [2] 0.013 | [3] 0.021 | [4] 0.03 | [5] 0.016 | [6] 0.006 | [7] -0.002 | [8] 0.021 | [9] -0.032 | [10] 0.027 | [11] 0.031 | [12] 0.004 | [13] -0.018 | [14] -0.08 | [15] 0.009 | [16] 0 | [17] -0.01 | [18] 0.001 | [19] 0.017 | [20] -0.011

DTD1 (UniProt Q8TEA8)
inactive: [1] -0.046 | [2] 0.029 | [3] -0.025 | [4] -0.022 | [5] -0.026 | [6] 0.035 | [7] 0.042 | [8] 0.031 | [9] -0.012 | [10] -0.032 | [11] 0.028 | [12] 0.048 | [13] -0.013 | [14] 0 | [15] -0.043 | [16] -0.023 | [17] 0.028 | [18] -0.018 | [19] 0.011 | [20] -0.007

EIF1AX (UniProt P47813)
inactive: [1] -0.024 | [2] -0.087 | [3] 0.038 | [4] -0.007 | [5] -0.033 | [6] -0.014 | [7] -0.044 | [8] 0.004 | [9] -0.037 | [10] -0.011 | [11] -0.02 | [12] -0.034 | [13] 0.017 | [14] 0.05 | [15] -0.008 | [16] -0.013 | [17] 0.012 | [18] -0.019 | [19] -0.019 | [20] -0.016

DROSHA (UniProt Q9NRR4)
inactive: [1] 0.048 | [2] -0.016 | [3] -0.027 | [4] -0.021 | [5] 0.075 | [6] -0.017 | [7] -0.033 | [8] 0.044 | [9] 0.054 | [10] -0.02 | [11] -0.079 | [12] 0.036 | [13] -0.017 | [14] -0.002 | [15] 0.073 | [16] 0 | [17] -0.035 | [18] -0.143 | [19] 0.107 | [20] 0.017

EDC4 (UniProt Q6P2E9)
inactive: [1] 0.002 | [2] -0.026 | [3] -0.022 | [4] 0.001 | [5] 0.006 | [6] -0.001 | [7] -0.02 | [8] -0.015 | [9] 0.014 | [10] 0.013 | [11] -0.001 | [12] 0.001 | [13] 0.028 | [14] -0.009 | [15] -0.011 | [16] 0.004 | [17] -0.006 | [18] 0.006 | [19] 0 | [20] -0.019

EDEM3 (UniProt Q9BZQ6)
inactive: [1] -0.016 | [2] 0.004 | [3] 0.002 | [4] -0.001 | [5] -0.01 | [6] 0.03 | [7] 0.037 | [8] 0.005 | [9] 0.019 | [10] -0.005 | [11] -0.025 | [12] 0.011 | [13] 0.003 | [14] -0.024 | [15] -0.018 | [16] 0.037 | [17] 0.014 | [18] -0.002 | [19] 0.018 | [20] 0.004

ECI1 (UniProt P42126)
inactive: [1] -0.028 | [2] -0.087 | [3] -0.009 | [4] 0.003 | [5] -0.015 | [6] -0.04 | [7] 0.052 | [8] 0.015 | [9] 0.007 | [10] -0.018 | [11] 0.04 | [12] 0.019 | [13] 0.033 | [14] 0.023 | [15] -0.015 | [16] -0.017 | [17] -0.006 | [18] -0.002 | [19] -0.037 | [20] 0.001

EHD1 (UniProt Q9H4M9)
inactive: [1] 0.013 | [2] 0.028 | [3] 0.028 | [4] 0.001 | [5] -0.01 | [6] 0.008 | [7] -0.025 | [8] -0.013 | [9] 0.017 | [10] -0.012 | [11] 0.001 | [12] -0.001 | [13] -0.004 | [14] -0.013 | [15] -0.017 | [16] -0.006 | [17] 0.004 | [18] 0.023 | [19] 0.019 | [20] 0.012

EARS2 (UniProt Q5JPH6)
inactive: [1] 0.005 | [2] 0.043 | [3] 0.027 | [4] -0.076 | [5] 0.028 | [6] 0.005 | [7] -0.063 | [8] -0.018 | [9] -0.001 | [10] 0.002 | [11] -0.025 | [12] 0.009 | [13] 0.006 | [14] 0.016 | [15] -0.02 | [16] 0.003 | [17] -0.071 | [18] 0.009 | [19] 0 | [20] -0.034

DVL3 (UniProt Q92997)
inactive: [1] 0.005 | [2] 0.013 | [3] -0.007 | [4] -0.047 | [5] -0.051 | [6] -0.09 | [7] -0.155 | [8] 0.179 | [9] -0.024 | [10] -0.018 | [11] -0.02 | [12] 0.116 | [13] 0.006 | [14] 0.03 | [15] 0.042 | [16] -0.003 | [18] -0.078 | [19] 0.059 | [20] 0.084

DYNC1I2 isoform 5 (UniProt Q13409)
inactive: [1] -0.005 | [2] 0.001 | [3] -0.001 | [4] 0.009 | [5] 0 | [6] 0.009 | [7] 0.019 | [8] -0.007 | [9] 0.016 | [10] 0.018 | [11] 0.022 | [12] -0.021 | [13] 0 | [14] -0.014 | [15] 0.004 | [16] 0.012 | [17] -0.007 | [18] -0.012 | [19] 0.008 | [20] -0.003

DPH1 (UniProt Q9BZG8)
inactive: [1] -0.039 | [2] 0.047 | [3] 0.046 | [4] -0.015 | [5] -0.005 | [6] 0.002 | [7] 0.043 | [8] 0.005 | [9] -0.026 | [10] 0.017 | [11] 0.014 | [12] 0.011 | [13] -0.003 | [14] -0.009 | [15] -0.02 | [16] -0.035 | [17] -0.002 | [18] 0.029 | [19] -0.015 | [20] -0.015

DYNC2H1 isoform 2 (UniProt Q8NCM8)
inactive: [1] 0.005 | [2] 0.02 | [3] 0.001 | [4] 0.039 | [5] -0.033 | [6] -0.002 | [7] 0.101 | [8] 0.015 | [9] 0.085 | [10] 0.011 | [11] 0.116 | [12] -0.05 | [13] 0.019 | [14] -0.065 | [15] -0.02 | [16] -0.03 | [17] -0.078 | [19] 0.059 | [20] -0.03

EEFSEC (UniProt P57772)
inactive: [1] -0.006 | [2] 0.054 | [3] -0.044 | [4] -0.022 | [5] 0.006 | [6] -0.044 | [7] -0.054 | [8] -0.025 | [9] -0.007 | [10] -0.024 | [11] 0.031 | [12] -0.03 | [13] 0.019 | [14] -0.013 | [15] -0.025 | [16] -0.011 | [17] 0.005 | [18] 0.011 | [19] 0.039 | [20] 0.006

Quoted at random: two entries already listed.
DYNC1I2 isoform 5 (UniProt Q13409)
inactive: [1] -0.005 | [2] 0.001 | [3] -0.001 | [4] 0.009 | [5] 0 | [6] 0.009 | [7] 0.019 | [8] -0.007 | [9] 0.016 | [10] 0.018 | [11] 0.022 | [12] -0.021 | [13] 0 | [14] -0.014 | [15] 0.004 | [16] 0.012 | [17] -0.007 | [18] -0.012 | [19] 0.008 | [20] -0.003

DYNC2H1 isoform 2 (UniProt Q8NCM8)
inactive: [1] 0.005 | [2] 0.02 | [3] 0.001 | [4] 0.039 | [5] -0.033 | [6] -0.002 | [7] 0.101 | [8] 0.015 | [9] 0.085 | [10] 0.011 | [11] 0.116 | [12] -0.05 | [13] 0.019 | [14] -0.065 | [15] -0.02 | [16] -0.03 | [17] -0.078 | [19] 0.059 | [20] -0.03
